Measurements taken from CN108047333A.
No constants are given. Whether binding was seen depends on the method and setting. Some binding calls cover weakened binding; strength is not graded here.

Protein sequences, listed by entry. Tags and fused reporters are not part of them. Residues count along the entry.
UniProt P20138, residues 18-259: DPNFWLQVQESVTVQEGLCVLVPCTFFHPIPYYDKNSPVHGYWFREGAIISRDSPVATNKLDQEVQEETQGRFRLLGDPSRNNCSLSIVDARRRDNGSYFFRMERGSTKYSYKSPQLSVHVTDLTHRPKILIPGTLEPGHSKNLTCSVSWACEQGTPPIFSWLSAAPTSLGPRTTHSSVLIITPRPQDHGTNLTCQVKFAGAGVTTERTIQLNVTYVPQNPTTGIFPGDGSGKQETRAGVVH

Target: CD33蛋白 (CD33 protein) (UniProt P20138)
Assay: SPR

B1: 单链抗体3-3 (anti-CD33 scFv) (scFv)
scFv: EVQLLESGGGLVQPGGSLRLSCAASGFTFSSYAMSWVRQAPGKGLEWVSTIRTGARTIYADSVKGRFTISRDNSKNTLYLQMNSLRAEDTAVYYCAKTKDPFDYWGQGTLVTVSSGGGGSGGGGSGGGGSTDIQMTQSPSSLSASVGDRVTITCRASQSISSYLNWYQQKPGKAPKLLYSASTLQSGVPSRFSGSGSGTDFTLTISSLQPEDFATYYCQQRTAWPYTFGQGTKVEIKR
  binding: binds
